Source: the supplement of paper PMC10849652
Some of the results follow.

By UniProt entry, the sequences of proteins in these tests, tags left out. Where a name states a change or a piece, a line headed by the entry shows the natural chain unless it says otherwise.
UniProt Q9UH62: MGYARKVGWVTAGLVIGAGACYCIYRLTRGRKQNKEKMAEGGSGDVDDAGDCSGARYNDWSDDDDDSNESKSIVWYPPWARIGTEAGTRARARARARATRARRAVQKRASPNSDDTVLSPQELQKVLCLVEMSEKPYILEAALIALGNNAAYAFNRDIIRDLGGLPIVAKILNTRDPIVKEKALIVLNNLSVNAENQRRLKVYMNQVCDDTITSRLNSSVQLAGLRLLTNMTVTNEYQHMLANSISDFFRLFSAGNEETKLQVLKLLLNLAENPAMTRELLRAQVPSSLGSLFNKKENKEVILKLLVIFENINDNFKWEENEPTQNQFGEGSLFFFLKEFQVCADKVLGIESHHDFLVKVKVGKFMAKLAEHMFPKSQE
UniProt P15848: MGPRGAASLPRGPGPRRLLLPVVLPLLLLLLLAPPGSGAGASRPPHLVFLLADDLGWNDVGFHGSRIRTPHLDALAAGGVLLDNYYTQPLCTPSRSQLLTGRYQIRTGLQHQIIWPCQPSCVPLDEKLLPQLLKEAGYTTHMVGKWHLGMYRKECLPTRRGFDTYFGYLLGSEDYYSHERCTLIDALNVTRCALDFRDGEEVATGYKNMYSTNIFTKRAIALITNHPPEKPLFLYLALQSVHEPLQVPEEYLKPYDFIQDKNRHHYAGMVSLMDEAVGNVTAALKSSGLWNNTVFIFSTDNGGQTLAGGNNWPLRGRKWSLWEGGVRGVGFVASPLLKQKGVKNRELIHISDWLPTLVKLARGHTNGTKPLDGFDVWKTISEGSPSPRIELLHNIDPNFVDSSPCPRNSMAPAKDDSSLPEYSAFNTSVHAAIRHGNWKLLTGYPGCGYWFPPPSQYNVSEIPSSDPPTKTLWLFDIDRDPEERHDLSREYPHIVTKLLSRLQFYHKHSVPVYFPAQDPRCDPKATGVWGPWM
UniProt Q13017, whole entry, looked up: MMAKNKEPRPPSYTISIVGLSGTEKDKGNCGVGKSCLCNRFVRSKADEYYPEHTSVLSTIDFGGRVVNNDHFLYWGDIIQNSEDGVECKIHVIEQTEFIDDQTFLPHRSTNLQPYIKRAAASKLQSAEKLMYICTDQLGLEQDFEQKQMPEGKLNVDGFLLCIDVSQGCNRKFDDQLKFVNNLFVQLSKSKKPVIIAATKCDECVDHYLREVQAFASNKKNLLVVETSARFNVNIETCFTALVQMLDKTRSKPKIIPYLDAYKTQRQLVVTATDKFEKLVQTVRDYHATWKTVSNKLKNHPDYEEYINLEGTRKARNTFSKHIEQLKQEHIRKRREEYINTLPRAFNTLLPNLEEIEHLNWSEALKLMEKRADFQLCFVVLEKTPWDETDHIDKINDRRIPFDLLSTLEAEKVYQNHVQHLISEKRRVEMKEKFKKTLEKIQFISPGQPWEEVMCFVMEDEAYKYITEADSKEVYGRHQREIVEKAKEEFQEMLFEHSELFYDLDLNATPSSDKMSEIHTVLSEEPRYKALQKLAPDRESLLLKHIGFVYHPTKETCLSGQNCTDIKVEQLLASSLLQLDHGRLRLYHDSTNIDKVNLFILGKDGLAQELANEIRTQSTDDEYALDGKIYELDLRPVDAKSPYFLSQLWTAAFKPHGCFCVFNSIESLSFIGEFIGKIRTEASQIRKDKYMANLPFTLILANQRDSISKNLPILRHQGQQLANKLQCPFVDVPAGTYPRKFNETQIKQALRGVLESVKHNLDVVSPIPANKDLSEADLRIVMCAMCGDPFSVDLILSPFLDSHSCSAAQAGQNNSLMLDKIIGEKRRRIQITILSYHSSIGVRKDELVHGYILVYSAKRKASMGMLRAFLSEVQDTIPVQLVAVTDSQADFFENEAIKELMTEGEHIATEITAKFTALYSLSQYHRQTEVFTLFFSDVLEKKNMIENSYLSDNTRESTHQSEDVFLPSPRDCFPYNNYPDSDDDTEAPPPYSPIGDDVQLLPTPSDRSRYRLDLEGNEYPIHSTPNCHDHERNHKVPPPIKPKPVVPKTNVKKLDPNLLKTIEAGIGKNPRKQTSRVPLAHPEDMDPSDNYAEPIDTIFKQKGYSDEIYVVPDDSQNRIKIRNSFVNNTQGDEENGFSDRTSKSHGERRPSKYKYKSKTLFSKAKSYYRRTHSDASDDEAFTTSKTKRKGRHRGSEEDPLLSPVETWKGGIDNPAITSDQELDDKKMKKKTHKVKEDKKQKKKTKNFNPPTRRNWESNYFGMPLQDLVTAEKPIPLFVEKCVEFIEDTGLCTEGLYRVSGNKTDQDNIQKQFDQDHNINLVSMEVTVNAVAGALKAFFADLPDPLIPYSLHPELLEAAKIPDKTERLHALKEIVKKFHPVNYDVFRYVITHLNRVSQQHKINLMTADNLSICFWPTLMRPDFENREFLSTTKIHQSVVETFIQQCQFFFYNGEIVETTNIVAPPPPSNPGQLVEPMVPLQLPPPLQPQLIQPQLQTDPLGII
UniProt O15085: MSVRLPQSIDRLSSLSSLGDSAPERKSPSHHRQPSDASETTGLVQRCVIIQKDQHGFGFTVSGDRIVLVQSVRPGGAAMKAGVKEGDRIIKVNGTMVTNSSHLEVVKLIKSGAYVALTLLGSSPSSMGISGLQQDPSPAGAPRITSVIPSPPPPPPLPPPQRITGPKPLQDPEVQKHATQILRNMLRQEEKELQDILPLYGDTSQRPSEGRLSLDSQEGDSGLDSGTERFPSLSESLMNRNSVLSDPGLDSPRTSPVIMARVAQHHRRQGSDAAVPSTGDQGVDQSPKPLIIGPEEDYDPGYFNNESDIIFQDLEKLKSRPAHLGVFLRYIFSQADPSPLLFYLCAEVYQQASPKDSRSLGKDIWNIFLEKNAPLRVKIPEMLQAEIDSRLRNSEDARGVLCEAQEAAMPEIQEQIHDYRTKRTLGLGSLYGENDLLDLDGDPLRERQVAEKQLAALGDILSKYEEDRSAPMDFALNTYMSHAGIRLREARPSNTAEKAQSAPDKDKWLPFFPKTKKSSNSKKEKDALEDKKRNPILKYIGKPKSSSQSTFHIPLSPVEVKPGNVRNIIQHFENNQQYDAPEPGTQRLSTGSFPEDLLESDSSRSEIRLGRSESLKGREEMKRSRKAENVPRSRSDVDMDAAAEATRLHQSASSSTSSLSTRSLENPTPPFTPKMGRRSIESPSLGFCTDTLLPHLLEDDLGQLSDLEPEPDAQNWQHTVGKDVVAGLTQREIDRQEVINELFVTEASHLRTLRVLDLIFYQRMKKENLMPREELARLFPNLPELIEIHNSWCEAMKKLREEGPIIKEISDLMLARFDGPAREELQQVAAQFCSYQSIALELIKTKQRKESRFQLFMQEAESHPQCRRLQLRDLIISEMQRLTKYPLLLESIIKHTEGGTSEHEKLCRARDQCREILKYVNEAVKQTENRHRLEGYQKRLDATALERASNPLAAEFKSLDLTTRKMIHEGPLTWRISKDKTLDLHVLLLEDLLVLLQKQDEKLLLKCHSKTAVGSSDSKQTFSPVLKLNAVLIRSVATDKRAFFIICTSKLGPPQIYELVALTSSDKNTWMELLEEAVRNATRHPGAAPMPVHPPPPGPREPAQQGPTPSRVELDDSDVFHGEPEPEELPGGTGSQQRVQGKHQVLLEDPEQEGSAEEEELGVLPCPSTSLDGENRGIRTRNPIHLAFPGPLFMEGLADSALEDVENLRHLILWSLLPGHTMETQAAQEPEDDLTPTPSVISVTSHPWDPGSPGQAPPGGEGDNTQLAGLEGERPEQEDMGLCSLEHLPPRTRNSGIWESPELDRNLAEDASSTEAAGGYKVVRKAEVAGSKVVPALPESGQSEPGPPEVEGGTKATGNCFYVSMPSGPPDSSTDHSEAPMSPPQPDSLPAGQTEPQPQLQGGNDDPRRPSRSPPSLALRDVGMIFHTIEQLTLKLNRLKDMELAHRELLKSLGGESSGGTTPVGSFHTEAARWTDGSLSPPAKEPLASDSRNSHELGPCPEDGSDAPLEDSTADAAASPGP
UniProt O14727: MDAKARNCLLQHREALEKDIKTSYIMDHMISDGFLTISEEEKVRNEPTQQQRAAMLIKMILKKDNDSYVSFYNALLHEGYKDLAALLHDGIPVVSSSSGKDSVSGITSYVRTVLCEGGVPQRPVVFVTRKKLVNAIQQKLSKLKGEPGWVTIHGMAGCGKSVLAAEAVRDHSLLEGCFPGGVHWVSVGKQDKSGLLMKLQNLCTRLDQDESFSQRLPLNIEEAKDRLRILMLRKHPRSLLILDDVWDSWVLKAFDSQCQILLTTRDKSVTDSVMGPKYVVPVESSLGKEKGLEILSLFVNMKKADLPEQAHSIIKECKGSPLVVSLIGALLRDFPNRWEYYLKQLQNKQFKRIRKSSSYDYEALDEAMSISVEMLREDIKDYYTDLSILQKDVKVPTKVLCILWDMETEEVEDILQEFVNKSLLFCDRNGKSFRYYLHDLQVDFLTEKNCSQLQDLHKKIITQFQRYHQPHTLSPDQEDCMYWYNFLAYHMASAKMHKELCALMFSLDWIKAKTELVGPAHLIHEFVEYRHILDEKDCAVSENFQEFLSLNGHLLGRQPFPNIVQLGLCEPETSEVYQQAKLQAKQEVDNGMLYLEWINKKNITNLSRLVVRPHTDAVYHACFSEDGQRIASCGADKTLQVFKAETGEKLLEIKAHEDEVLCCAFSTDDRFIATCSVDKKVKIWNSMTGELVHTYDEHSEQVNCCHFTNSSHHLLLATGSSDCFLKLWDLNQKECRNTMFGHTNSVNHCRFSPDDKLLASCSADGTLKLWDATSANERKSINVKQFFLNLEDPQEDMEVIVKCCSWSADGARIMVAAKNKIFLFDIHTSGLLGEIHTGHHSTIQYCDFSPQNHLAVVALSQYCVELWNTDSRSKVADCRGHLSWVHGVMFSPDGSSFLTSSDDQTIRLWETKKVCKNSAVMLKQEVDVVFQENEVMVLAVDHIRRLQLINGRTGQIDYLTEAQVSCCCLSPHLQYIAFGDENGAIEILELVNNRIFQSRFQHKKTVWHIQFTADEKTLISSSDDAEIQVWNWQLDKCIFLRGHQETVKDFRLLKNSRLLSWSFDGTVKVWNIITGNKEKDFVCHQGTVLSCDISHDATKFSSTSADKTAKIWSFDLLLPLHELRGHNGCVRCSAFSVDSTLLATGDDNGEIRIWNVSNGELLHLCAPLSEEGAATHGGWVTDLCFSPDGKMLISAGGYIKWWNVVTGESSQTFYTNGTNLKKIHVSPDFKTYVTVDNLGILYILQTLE
UniProt Q8NEU8: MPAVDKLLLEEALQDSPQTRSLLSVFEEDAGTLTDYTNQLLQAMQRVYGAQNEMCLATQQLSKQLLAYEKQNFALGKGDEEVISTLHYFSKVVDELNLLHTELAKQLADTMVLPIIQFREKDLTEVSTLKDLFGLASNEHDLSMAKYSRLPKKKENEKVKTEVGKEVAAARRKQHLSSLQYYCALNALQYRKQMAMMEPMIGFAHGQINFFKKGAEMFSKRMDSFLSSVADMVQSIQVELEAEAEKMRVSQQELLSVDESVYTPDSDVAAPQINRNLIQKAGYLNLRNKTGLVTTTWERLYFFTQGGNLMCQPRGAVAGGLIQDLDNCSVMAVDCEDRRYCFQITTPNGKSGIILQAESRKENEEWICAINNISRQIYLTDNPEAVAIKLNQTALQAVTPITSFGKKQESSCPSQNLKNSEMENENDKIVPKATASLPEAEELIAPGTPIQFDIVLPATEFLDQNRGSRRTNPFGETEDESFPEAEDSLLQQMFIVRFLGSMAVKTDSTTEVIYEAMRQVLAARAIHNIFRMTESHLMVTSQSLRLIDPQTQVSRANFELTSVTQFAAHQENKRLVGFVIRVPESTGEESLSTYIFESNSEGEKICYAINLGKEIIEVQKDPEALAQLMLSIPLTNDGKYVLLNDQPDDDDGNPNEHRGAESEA
UniProt Q9NP61: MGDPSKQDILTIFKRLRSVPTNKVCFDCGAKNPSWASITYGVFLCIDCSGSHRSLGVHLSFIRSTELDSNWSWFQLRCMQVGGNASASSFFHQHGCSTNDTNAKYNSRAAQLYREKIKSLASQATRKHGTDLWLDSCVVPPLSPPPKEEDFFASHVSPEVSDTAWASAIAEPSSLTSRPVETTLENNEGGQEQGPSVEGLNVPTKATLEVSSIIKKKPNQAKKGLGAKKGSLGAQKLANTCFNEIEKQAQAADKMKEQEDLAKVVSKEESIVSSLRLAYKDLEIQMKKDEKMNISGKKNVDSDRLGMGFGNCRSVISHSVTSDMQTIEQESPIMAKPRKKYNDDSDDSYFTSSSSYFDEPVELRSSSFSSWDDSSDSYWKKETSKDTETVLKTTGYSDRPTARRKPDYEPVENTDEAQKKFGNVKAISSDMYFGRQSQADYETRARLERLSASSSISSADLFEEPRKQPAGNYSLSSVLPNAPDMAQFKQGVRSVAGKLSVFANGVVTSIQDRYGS
UniProt P52566: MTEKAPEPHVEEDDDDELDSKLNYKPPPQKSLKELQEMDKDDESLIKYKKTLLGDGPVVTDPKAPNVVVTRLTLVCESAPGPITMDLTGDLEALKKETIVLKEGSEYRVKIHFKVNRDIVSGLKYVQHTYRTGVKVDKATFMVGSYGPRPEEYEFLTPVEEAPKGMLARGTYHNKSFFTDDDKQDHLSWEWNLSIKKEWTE

Tests used:
Test in all cases: log2 fold change, soluble protein after heating vs DMSO (PISA); higher = thermal stabilisation; K562 lysate, 10 uM; active = over 0.2 and 3.5 SD of the protein, either way, in both replicates (recomputed)
vemurafenib = compound: CCCS(=O)(=O)Nc1ccc(F)c(C(=O)c2c[nH]c3ncc(-c4ccc(Cl)cc4)cc23)c1F [vemurafenib]
Procedure, shortened: (§1)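 K562 pellets were dounce-homogenised in PBS pH 7.4 with 1 mM MgCl2, and the crude extract at 1 mg/mL protein was treated with 10 μM compound for 30 min. Aliquots were heated for 3 min across 48°C-58°C, pooled, and brought to 0.5% NP-40 at 4°C; soluble protein was the supernatant after 21,000xg for 90 min. Soluble protein was quantified by TMTpro 16plex LC-MS/MS with channel sums equalised, and reported as log2 fold change in thermal stability against DMSO controls, with values from duplicates.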

[1] = compound: CCCS(=O)(=O)Nc1ccc(F)c(C(=O)c2c[nH]c3ncc(Cl)cc23)c1F
Procedure, shortened: as §1

barasertib = compound: CCN(CCCOc1ccc2c(Nc3cc(CC(=O)Nc4cccc(F)c4)[nH]n3)ncnc2c1)CCOP(=O)(O)O [barasertib]
Procedure, shortened: as §1

[2] = compound: CC[C@@H]1C(=O)N(C)c2cnc(Nc3ccc(C(=O)NC4CCN(C)CC4)cc3OC)nc2N1C1CCCC1
Procedure, shortened: as §1

volasertib = compound: CC[C@@H]1C(=O)N(C)c2cnc(Nc3ccc(C(=O)N[C@H]4CC[C@H](N5CCN(CC6CC6)CC5)CC4)cc3OC)nc2N1C(C)C [volasertib]
Procedure, shortened: as §1

[3] = compound: CCn1c(C(=O)N(C2CC2)C2CC2)cc2c3c(ncn3C)c(Nc3cc(C)n(C)n3)nc21
Procedure, shortened: as §1

[4] = compound: CCn1cc(-c2ccnc3[nH]c(-c4cccc(CN(C)C)c4)cc23)c(-c2ccc(NC(=O)N(C)C)cc2)n1
Procedure, shortened: as §1

[5] = compound: CN1CCC(CNc2ccc3ncc(-c4cccc(OC(F)(F)F)c4)n3n2)CC1
Procedure, shortened: as §1

saracatinib = compound: CN1CCN(CCOc2cc(OC3CCOCC3)c3c(Nc4c(Cl)ccc5c4OCO5)ncnc3c2)CC1 [saracatinib]
Procedure, shortened: as §1

sotrastaurin = compound: CN1CCN(c2nc(C3=C(c4c[nH]c5ccccc45)C(=O)NC3=O)c3ccccc3n2)CC1 [sotrastaurin]
Procedure, shortened: as §1

Measured: log2 fold change

ARPC2 (UniProt O15144)
inactive: vemurafenib -0.002 | [1] -0.007 | barasertib -0.008 | [2] -0.015 | volasertib 0.032 | [3] 0.007 | [4] -0.043 | [5] 0.034 | saracatinib 0.006 | sotrastaurin 0.016

ARHGEF18 (UniProt Q6ZSZ5)
inactive: vemurafenib -0.19 | [1] 0.04 | barasertib -0.002 | [2] 0.018 | volasertib -0.074 | [3] -0.032 | [4] -0.049 | [5] 0.077 | saracatinib 0.023 | sotrastaurin 0.022

ARPC1B (UniProt O15143)
inactive: vemurafenib -0.042 | [1] 0.007 | barasertib 0 | [2] 0.045 | volasertib 0.025 | [3] -0.022 | [4] -0.003 | [5] -0.007 | saracatinib -0.057 | sotrastaurin 0.002

ARID3A (UniProt Q99856)
inactive: vemurafenib -0.011 | [1] -0.012 | barasertib 0.051 | [2] 0.014 | volasertib -0.009 | [3] 0.001 | [4] 0.025 | [5] -0.051 | saracatinib -0.011 | sotrastaurin 0.017

ARMCX3 (UniProt Q9UH62)
inactive: vemurafenib -0.024 | [1] 0.027 | barasertib 0.102 | [2] -0.033 | volasertib -0.045 | [3] 0.021 | [4] -0.01 | [5] -0.049 | saracatinib 0.012 | sotrastaurin 0.016

APOC1 (UniProt P02654)
inactive: vemurafenib 0.274 | [1] -0.039 | barasertib -0.132 | [2] -0.042 | volasertib 0.081 | [3] -0.009 | [4] 0.21 | [5] -0.332 | saracatinib 0.094 | sotrastaurin -0.035

ARSB (UniProt P15848)
inactive: vemurafenib 0.061 | [1] 0.014 | barasertib 0.079 | [2] -0.001 | volasertib 0.004 | [3] 0.035 | [4] -0.139 | [5] -0.013 | saracatinib 0.023 | sotrastaurin -0.001

ARG2 (UniProt P78540)
inactive: vemurafenib 0.008 | [1] 0.008 | barasertib 0.004 | [2] 0.045 | volasertib 0.041 | [3] -0.005 | [4] -0.036 | [5] 0.066 | saracatinib -0.04 | sotrastaurin -0.009

ARHGAP5 (UniProt Q13017)
inactive: vemurafenib 0.019 | [1] 0.046 | barasertib 0.022 | [2] 0.037 | volasertib 0.02 | [3] 0.142 | [4] -0.026 | [5] -0.051 | saracatinib 0.004 | sotrastaurin 0.032

ARHGEF11 isoform 2 (UniProt O15085)
inactive: vemurafenib 0.076 | [1] 0.081 | barasertib -0.094 | [2] 0.025 | volasertib 0.037 | [3] -0.033 | [4] -0.023 | [5] 0.003 | saracatinib 0.024 | sotrastaurin -0.005

APAF1 (UniProt O14727)
inactive: vemurafenib -0.014 | [1] -0.012 | barasertib 0.073 | [2] -0.087 | volasertib -0.056 | [3] 0.001 | [4] 0.115 | [5] -0.012 | saracatinib -0.028 | sotrastaurin 0.015

AP5M1 (UniProt Q9H0R1)
inactive: vemurafenib -0.205 | [1] -0.021 | barasertib -0.022 | [2] 0.012 | volasertib -0.029 | [3] 0.036 | [4] 0.205 | [5] 0.012 | saracatinib 0.007 | sotrastaurin 0.009

ARPC1A (UniProt Q92747)
inactive: vemurafenib 0.018 | [1] -0.011 | barasertib 0.015 | [2] 0.076 | volasertib 0.011 | [3] -0.007 | [4] -0.228 | [5] 0.12 | saracatinib 0.014 | sotrastaurin -0.031

ARMT1 (UniProt Q9H993)
inactive: vemurafenib 0.013 | [1] 0.016 | barasertib -0.029 | [2] -0.03 | volasertib -0.094 | [3] 0.016 | [4] 0.01 | [5] -0.074 | saracatinib 0.037 | sotrastaurin 0.039

APPL2 isoform 3 (UniProt Q8NEU8)
inactive: vemurafenib 0.045 | [1] 0.043 | barasertib -0.015 | [2] 0.044 | volasertib -0.009 | [3] 0.258 | [4] 0.187 | [5] 0.146 | saracatinib 0.051 | sotrastaurin 0.032

ARFGAP3 (UniProt Q9NP61)
inactive: vemurafenib -0.038 | [1] 0 | barasertib -0.012 | [2] 0.119 | volasertib 0.033 | [3] -0.013 | [4] -0.009 | [5] 0.014 | saracatinib -0.008 | sotrastaurin 0

APEX1 (UniProt P27695)
active: [4] 0.37
inactive: vemurafenib 0.019 | [1] 0.017 | barasertib -0.027 | [2] -0.03 | volasertib -0.004 | [3] 0.043 | [5] -0.07 | saracatinib -0.001 | sotrastaurin 0.009

ARPIN isoform 2 (UniProt Q7Z6K5)
inactive: vemurafenib 0.08 | [1] 0.04 | barasertib 0.165 | [2] 0.1 | volasertib -0.042 | [3] -0.006 | [4] -0.011 | [5] 0.066 | saracatinib 0.104 | sotrastaurin 0.039

ARHGEF10 (UniProt O15013)
inactive: vemurafenib -0.001 | [1] -0.058 | barasertib -0.118 | [2] 0.089 | volasertib 0.136 | [3] -0.221 | [4] -0.266 | [5] 0.123 | saracatinib 0 | sotrastaurin 0.136

Seven successive records from above, for reference:
ARPC1A (UniProt Q92747)
inactive: vemurafenib 0.018 | [1] -0.011 | barasertib 0.015 | [2] 0.076 | volasertib 0.011 | [3] -0.007 | [4] -0.228 | [5] 0.12 | saracatinib 0.014 | sotrastaurin -0.031

ARMT1 (UniProt Q9H993)
inactive: vemurafenib 0.013 | [1] 0.016 | barasertib -0.029 | [2] -0.03 | volasertib -0.094 | [3] 0.016 | [4] 0.01 | [5] -0.074 | saracatinib 0.037 | sotrastaurin 0.039

APPL2 isoform 3 (UniProt Q8NEU8)
inactive: vemurafenib 0.045 | [1] 0.043 | barasertib -0.015 | [2] 0.044 | volasertib -0.009 | [3] 0.258 | [4] 0.187 | [5] 0.146 | saracatinib 0.051 | sotrastaurin 0.032

ARFGAP3 (UniProt Q9NP61)
inactive: vemurafenib -0.038 | [1] 0 | barasertib -0.012 | [2] 0.119 | volasertib 0.033 | [3] -0.013 | [4] -0.009 | [5] 0.014 | saracatinib -0.008 | sotrastaurin 0

APEX1 (UniProt P27695)
active: [4] 0.37
inactive: vemurafenib 0.019 | [1] 0.017 | barasertib -0.027 | [2] -0.03 | volasertib -0.004 | [3] 0.043 | [5] -0.07 | saracatinib -0.001 | sotrastaurin 0.009

ARPIN isoform 2 (UniProt Q7Z6K5)
inactive: vemurafenib 0.08 | [1] 0.04 | barasertib 0.165 | [2] 0.1 | volasertib -0.042 | [3] -0.006 | [4] -0.011 | [5] 0.066 | saracatinib 0.104 | sotrastaurin 0.039

ARHGEF10 (UniProt O15013)
inactive: vemurafenib -0.001 | [1] -0.058 | barasertib -0.118 | [2] 0.089 | volasertib 0.136 | [3] -0.221 | [4] -0.266 | [5] 0.123 | saracatinib 0 | sotrastaurin 0.136

(continued)

APOB (UniProt P04114)
active: [4] -0.224
inactive: vemurafenib -0.006 | [1] 0.039 | barasertib 0.03 | [2] -0.009 | volasertib 0.026 | [3] -0.189 | [5] 0.092 | saracatinib 0.029 | sotrastaurin 0.024

ARRDC1 (UniProt Q8N5I2)
inactive: vemurafenib 0.007 | [1] -0.006 | barasertib -0.102 | [2] -0.004 | volasertib 0.052 | [3] 0.05 | [4] -0.116 | [5] -0.024 | saracatinib -0.045 | sotrastaurin 0.066

ARL6IP1 (UniProt Q15041)
inactive: vemurafenib -0.013 | [1] -0.051 | barasertib -0.113 | [2] 0.042 | volasertib 0.004 | [3] 0.008 | [4] -0.086 | [5] 0.064 | saracatinib -0.021 | sotrastaurin -0.036

ARMC8 (UniProt Q8IUR7)
inactive: vemurafenib 0.012 | [1] 0.008 | barasertib 0.013 | [2] -0.021 | volasertib 0.02 | [3] -0.008 | [4] -0.073 | [5] 0.063 | saracatinib -0.003 | sotrastaurin 0.01

ARAF (UniProt P10398)
active: vemurafenib 0.411
inactive: [1] 0.058 | barasertib 0.015 | [2] -0.069 | volasertib -0.038 | [3] -0.015 | [4] 0.042 | [5] 0 | saracatinib 0.005 | sotrastaurin 0.002

ARL8A (UniProt Q96BM9)
active: [4] 0.558
inactive: vemurafenib -0.029 | [1] -0.26 | barasertib -0.026 | [2] -0.001 | volasertib -0.037 | [3] -0.03 | [5] -0.199 | saracatinib 0.03 | sotrastaurin 0.022

APLP2 (UniProt Q06481)
inactive: vemurafenib 0.047 | [1] -0.023 | barasertib -0.046 | [2] 0.064 | volasertib -0.002 | [3] -0.042 | [4] 0.008 | [5] 0.056 | saracatinib 0.007 | sotrastaurin 0.01

ARHGDIB (UniProt P52566)
inactive: vemurafenib -0.015 | [1] -0.027 | barasertib -0.028 | [2] -0.017 | volasertib 0.022 | [3] -0.001 | [4] 0.065 | [5] 0 | saracatinib -0.024 | sotrastaurin 0.003

ARFIP2 (UniProt P53365)
inactive: vemurafenib 0.009 | [1] -0.022 | barasertib 0.037 | [2] 0.072 | volasertib -0.003 | [3] -0.008 | [4] 0.009 | [5] -0.019 | saracatinib 0.078 | sotrastaurin -0.042

APOO (UniProt Q9BUR5)
inactive: vemurafenib -0.074 | [1] 0.008 | barasertib 0.056 | [2] -0.107 | volasertib 0.051 | [3] -0.036 | [4] 0.052 | [5] -0.03 | saracatinib -0.002 | sotrastaurin 0.005
